Here are results for 28 compounds from the supplement of paper PMC4604168 (melanoma cell lines).

Some of the results follow. Repeats are few or missing, and single values can be far off.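 Imaging used 1,536-well plates; nuclei positive for cleaved PARP by antibody were divided by total DNA-stained nuclei to yield the apoptosis fraction. Doses for screening kept most cells viable, and cell lines differ markedly in resting and induced cleaved-PARP levels.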

The test system of one assay is 501Mel. In words: cleaved PARP positive nuclei fraction relative to DMSO control; melanoma cells; higher = more apoptosis. As to conditions: library dose: low library concentration; 72 h.
In the case of `Cc1cc(Nc2cc(N3CCN(C)CC3)nc(/C=C/c3ccccc3)n2)n[nH]1` + C#Cc1cccc(Nc2ncnc3cc(OCCOC)c(OCCOC)cc23)c1 [erlotinib] (first compound 0.04 µM, partner dose 0.8 µM), the “cleaved PARP positive nuclei fraction” value amounted to 97.1%. For `Nc1ccn([C@@H]2O[C@H](CO)[C@@H](O)C2(F)F)c(=O)n1` [gemcitabine] + COc1ccc(Cl)c(Nc2nc3ccccc3nc2NS(=O)(=O)c2cccc(NC(=O)C(C)(C)N)c2)c1 [XL147] (first compound 0.0004 µM, partner dose 0.8 µM), the “cleaved PARP positive nuclei fraction” value was 90.9%. Still for that read-out and setting: next, `Cc1cc(Nc2cc(N3CCN(C)CC3)nc(/C=C/c3ccccc3)n2)n[nH]1` + CNC(=O)c1cc(Oc2ccc(NC(=O)Nc3ccc(Cl)c(C(F)(F)F)c3)cc2)ccn1 [sorafenib] (first compound 0.04 µM, partner dose 0.4 µM): 51.2%; `O=C(O)c1ccc2c(c1)nc(Nc1cccc(Cl)c1)c1ccncc12` + Nc1nc(F)nc2c1ncn2[C@@H]1O[C@H](CO)[C@@H](O)[C@@H]1O [fludarabine] (first compound 0.4 µM, partner dose 0.2 µM): 16200%. Take `O=C(O)c1ccc2c(c1)nc(Nc1cccc(Cl)c1)c1ccncc12` + Nc1cccc2c1CN(C1CCC(=O)NC1=O)C2=O [lenalidomide] (first compound 0.4 µM, partner dose 1 µM): the “cleaved PARP positive nuclei fraction” value was 68.9%. Turning to `Nc1ncn([C@H]2C[C@H](O)[C@@H](CO)O2)c(=O)n1` [decitabine] + OCc1c[nH]c2ccccc12 [Indole-3-carbinol] (first compound 0.1 µM, partner dose 0.8 µM), the “cleaved PARP positive nuclei fraction” value is 44.4%. Take `CC(C)C[C@H](NC(=O)[C@H](Cc1ccccc1)NC(=O)c1cnccn1)B(O)O` [Bortezomib] + Cn1c(Nc2ccc(C(F)(F)F)cc2)nc2cc(Oc3ccnc(-c4ncc(C(F)(F)F)[nH]4)c3)ccc21 [CHIR265] (first compound 0.001 µM, partner dose 0.08 µM): the “cleaved PARP positive nuclei fraction” value was 225%. In the case of `Cn1c(=O)n(-c2ccc(C(C)(C)C#N)cc2)c2c3cc(-c4cnc5ccccc5c4)ccc3ncc21` + C[C@]1(c2nc3c(C(N)=O)cccc3[nH]2)CCCN1 [Veliparib] (first compound 0.004 µM, partner dose 1.4 µM), the “cleaved PARP positive nuclei fraction” value came out at 142%. As to `CS(=O)(=O)CCNCc1ccc(-c2ccc3ncnc(Nc4ccc(OCc5cccc(F)c5)c(Cl)c4)c3c2)o1` [lapatinib] + COCC[n+]1c2c(n(Cc3cnccn3)c1C)C(=O)c1ccccc1C2=O [YM155] (first compound 0.8 µM, partner dose 0.0004 µM), the “cleaved PARP positive nuclei fraction” value amounted to 57.9%. As for `CCCS(=O)(=O)Nc1ccc(F)c(C(=O)c2c[nH]c3ncc(Cl)cc23)c1F` + Nc1nc(F)nc2c1ncn2[C@@H]1O[C@H](CO)[C@@H](O)[C@@H]1O [fludarabine] (first compound 0.08 µM, partner dose 0.2 µM), the “cleaved PARP positive nuclei fraction” value is 9200%. For the compound `Cc1cc(Nc2cc(N3CCN(C)CC3)nc(/C=C/c3ccccc3)n2)n[nH]1` + CO[C@H]1C[C@@H]2CC[C@@H](C)[C@@](O)(O2)C(=O)C(=O)N2CCCC[C@H]2C(=O)O[C@H]([C@H](C)C[C@@H]2CC[C@@H](OCCO)[C@H](OC)C2)CC(=O)[C@H](C)/C=C(\C)[C@@H](O)[C@@H](OC)C(=O)[C@H](C)C[C@H](C)/C=C/C=C/C=C/1C [everolimus] (first compound 0.04 µM, partner dose 0.02 µM), the “cleaved PARP positive nuclei fraction” value was determined as 146%. Consider `CCCS(=O)(=O)Nc1ccc(F)c(C(=O)c2c[nH]c3ncc(Cl)cc23)c1F` + Nc1ncn([C@H]2C[C@H](O)[C@@H](CO)O2)c(=O)n1 [decitabine] (first compound 0.08 µM, partner dose 0.1 µM), for which the “cleaved PARP positive nuclei fraction” value came to 145%.

In a further assay the test system is A101D. The description is as above. As to conditions: library dose: low library concentration; 72 h.
As to `Cn1c(=O)n(-c2ccc(C(C)(C)C#N)cc2)c2c3cc(-c4cnc5ccccc5c4)ccc3ncc21` + CN1CCN(c2ccc3nc(-c4c(N)c5c(F)cccc5[nH]c4=O)[nH]c3c2)CC1 [Dovitinib] (first compound 0.004 µM, partner dose 0.1 µM), the “cleaved PARP positive nuclei fraction” value worked out at 109%. Regarding `O=C(O)c1ccc2c(c1)nc(Nc1cccc(Cl)c1)c1ccncc12` + COc1ccc(Cl)c(Nc2nc3ccccc3nc2NS(=O)(=O)c2cccc(NC(=O)C(C)(C)N)c2)c1 [XL147] (first compound 0.4 µM, partner dose 0.8 µM), the “cleaved PARP positive nuclei fraction” value was 97.9%. Turning to `CNC(=O)c1cc(Oc2ccc(NC(=O)Nc3ccc(Cl)c(C(F)(F)F)c3)cc2)ccn1` [sorafenib] + OCc1c[nH]c2ccccc12 [Indole-3-carbinol] (first compound 0.4 µM, partner dose 0.8 µM), the “cleaved PARP positive nuclei fraction” value amounted to 48.1%. As to `CO[C@H]1C[C@@H]2CC[C@@H](C)[C@@](O)(O2)C(=O)C(=O)N2CCCC[C@H]2C(=O)O[C@H]([C@H](C)C[C@@H]2CC[C@@H](OCCO)[C@H](OC)C2)CC(=O)[C@H](C)/C=C(\C)[C@@H](O)[C@@H](OC)C(=O)[C@H](C)C[C@H](C)/C=C/C=C/C=C/1C` [everolimus] + O=C(O)c1ccc2c(c1)nc(Nc1cccc(Cl)c1)c1ccncc12 [CX4945] (first compound 0.02 µM, partner dose 0.4 µM), the “cleaved PARP positive nuclei fraction” value came out at 106%. For the compound `Cn1c(=O)n(-c2ccc(C(C)(C)C#N)cc2)c2c3cc(-c4cnc5ccccc5c4)ccc3ncc21` + O=C(O)c1ccc2c(c1)nc(Nc1cccc(Cl)c1)c1ccncc12 [CX4945] (first compound 0.004 µM, partner dose 0.4 µM), the “cleaved PARP positive nuclei fraction” value is 405%. As for `CNC(=O)c1cc(Oc2ccc(NC(=O)Nc3ccc(Cl)c(C(F)(F)F)c3)cc2)ccn1` [sorafenib] + Cn1c(Nc2ccc(C(F)(F)F)cc2)nc2cc(Oc3ccnc(-c4ncc(C(F)(F)F)[nH]4)c3)ccc21 [CHIR265] (first compound 0.4 µM, partner dose 0.08 µM), the “cleaved PARP positive nuclei fraction” value was 105%.

`Cc1cc(Nc2cc(N3CCN(C)CC3)nc(/C=C/c3ccccc3)n2)n[nH]1` + NC1(c2ccc(-c3nc4ccn5c(=O)[nH]nc5c4cc3-c3ccccc3)cc2)CCC1 [MK2206] (first compound 0.04 µM, partner dose 0.4 µM): the “cleaved PARP positive nuclei fraction” value was 122%. As to `CC(C)C[C@H](NC(=O)[C@H](Cc1ccccc1)NC(=O)c1cnccn1)B(O)O` [Bortezomib] + CS(=O)(=O)CCNCc1ccc(-c2ccc3ncnc(Nc4ccc(OCc5cccc(F)c5)c(Cl)c4)c3c2)o1 [lapatinib] (first compound 0.001 µM, partner dose 0.8 µM), the “cleaved PARP positive nuclei fraction” value was 1040%. In the case of `CO[C@H]1C[C@@H]2CC[C@@H](C)[C@@](O)(O2)C(=O)C(=O)N2CCCC[C@H]2C(=O)O[C@H]([C@H](C)C[C@@H]2CC[C@@H](OCCO)[C@H](OC)C2)CC(=O)[C@H](C)/C=C(\C)[C@@H](O)[C@@H](OC)C(=O)[C@H](C)C[C@H](C)/C=C/C=C/C=C/1C` [everolimus] + Cn1nnc2c(C(N)=O)ncn2c1=O [temozolomide] (first compound 0.02 µM, partner dose 2 µM), the “cleaved PARP positive nuclei fraction” value came out at 110%. For `O=C(O)[C@@H]1[O][Sb](=[O])([O][Sb]2(=[O])[O][C@H]([C@H](O)CO)[C@H](O)[C@H](C(=O)O)[O]2)[O][C@H]([C@H](O)CO)[C@@H]1O` (stereo partly drawn) [stibogluconate] + C#Cc1cccc(Nc2ncnc3cc(OCCOC)c(OCCOC)cc23)c1 [erlotinib] (first compound 2 µM, partner dose 0.8 µM), the “cleaved PARP positive nuclei fraction” value stood at 82.4%. Turning to `C=C(c1ccc(C(=O)O)cc1)c1cc2c(cc1C)C(C)(C)CCC2(C)C` [Bexarotene] + Nc1nc(F)nc2c1ncn2[C@@H]1O[C@H](CO)[C@@H](O)[C@@H]1O [fludarabine] (first compound 2 µM, partner dose 0.2 µM), the “cleaved PARP positive nuclei fraction” value worked out at 100%.

As for `CNC(=O)c1cc(Oc2ccc(NC(=O)Nc3ccc(Cl)c(C(F)(F)F)c3)cc2)ccn1` [sorafenib] + C=CCNC1=C2C[C@@H](C)C[C@H](OC)[C@H](O)[C@@H](C)/C=C(\C)[C@H](OC(N)=O)[C@@H](OC)/C=C\C=C(/C)C(=O)NC(=CC1=O)C2=O [Tanespimycin] (first compound 0.4 µM, partner dose 0.002 µM), the “cleaved PARP positive nuclei fraction” value is 95.6%. With `Cn1c(=O)n(-c2ccc(C(C)(C)C#N)cc2)c2c3cc(-c4cnc5ccccc5c4)ccc3ncc21` + Nc1ncn([C@H]2C[C@H](O)[C@@H](CO)O2)c(=O)n1 [decitabine] (first compound 0.004 µM, partner dose 0.1 µM), the “cleaved PARP positive nuclei fraction” value was 51%.

As for `CC(C)C[C@H](NC(=O)[C@H](Cc1ccccc1)NC(=O)c1cnccn1)B(O)O` [Bortezomib] + C=C(c1ccc(C(=O)O)cc1)c1cc2c(cc1C)C(C)(C)CCC2(C)C [Bexarotene] (first compound 0.001 µM, partner dose 2 µM), the “cleaved PARP positive nuclei fraction” value was 847%. For the compound `CCCS(=O)(=O)Nc1ccc(F)c(C(=O)c2c[nH]c3ncc(Cl)cc23)c1F` + COCC[n+]1c2c(n(Cc3cnccn3)c1C)C(=O)c1ccccc1C2=O [YM155] (first compound 0.08 µM, partner dose 0.0004 µM), the “cleaved PARP positive nuclei fraction” value came to 103%. On the same count and under the same terms, the result for `CN1CCN(c2ccc3nc(-c4c(N)c5c(F)cccc5[nH]c4=O)[nH]c3c2)CC1` [Dovitinib] + Cn1c(Nc2ccc(C(F)(F)F)cc2)nc2cc(Oc3ccnc(-c4ncc(C(F)(F)F)[nH]4)c3)ccc21 [CHIR265] (first compound 0.1 µM, partner dose 0.08 µM) reads 84.1%.
